Experimental data reported in patent US12440528B2, “Methods of treating ovarian cancer with hemp extract” (Ecofibre USA Inc., priority 2021, dated 2025).

Tested on: patient derived organoids (PD3D Cell Culture)
Assay: Calculated IC50 in PD3D cell culture of the patient derived organoids
Type: cell-based, human

SMILES	Calculated IC50 PD3D Cell Culture
COc1cc2c(c(OC)c1OC)-c1ccc(OC)c(=O)cc1[C@@H](NC(C)=O)CC2 [Colchicine]	Not Reached
CC(C)NCC(O)COc1cccc2ccccc12 (centres unmarked) [Propranolol]	Not Reached
